Laboratory results: paper PMC3975624

Columns and labels:
[1] = molecular target: T1, Mic10-His6 (S. cerevisiae) (UniProt Q96VH5); assay: condition: only mitochondria lysed with 1% digitonin (MICOS complex kept intact); pull-down; mitochondria (1 mg protein) from a strain expressing Mic10-His6 lysed with 1% digitonin (50 mM potassium phosphate, 50 mM NaCl, 10 mM imidazole, pH 8.0, 1 mM PMSF); Ni-NTA beads; bound proteins eluted with Laemmli buffer with 300 mM imidazole; immunoblotting
T1 sequence: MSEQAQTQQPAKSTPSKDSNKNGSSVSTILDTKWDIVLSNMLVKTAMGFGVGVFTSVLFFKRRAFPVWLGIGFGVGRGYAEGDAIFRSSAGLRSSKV

[2] = molecular target: T1, Mic10-His6 (S. cerevisiae); assay: pull-down; mitochondria (1 mg protein) from a strain expressing Mic10-His6 lysed with 1% Triton X-100 (50 mM potassium phosphate, 50 mM NaCl, 10 mM imidazole, pH 8.0, 1 mM PMSF), which dissociates the MICOS complex into smaller complexes; Ni-NTA beads; bound proteins eluted with Laemmli buffer with 300 mM imidazole; immunoblotting

## Aim24
[1]
  binding: no binding
[2]
  binding: binds

No constants are given. Whether binding was seen depends on the method and setting. Binding seen in cells or lysates may run through a third protein. For some assays here: A result given as binding can be weak or reduced; the word gives no strength. Sequences can lack the tags named with a protein.
